PubChem BioAssay AID504764 – Drosophila RNAi Screening Center, 2011
Assay: 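Knock-downs that raise or lower a Notch target reporter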 (primary screen). Cell system: Drosophila Kc167 cells. Reagents: long dsRNA against Drosophila genes. Timing: about 5 days (4 days dsRNA, then 24 h after transfection). Conditions: transfection of constitutively active membrane-tethered Notch lacking the extracellular domain, read 24 h later. Measurement: 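Firefly luciferase from an E(spl)m3 reporter with active Notch, plus control-promoter and uninduced reporter wells for normalisation; unnormalised counts, duplicate wells a and b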. Direction: induced reporter light, run 1, well a and induced reporter light, run 1, well b: higher = more light from the Notch target reporter with active Notch; control promoter light, run 1, well a and control promoter light, run 1, well b: higher = more light from the viral control promoter (cell number, transfection, viability); uninduced reporter light, run 1, well a: higher = more light from the Notch target reporter without active Notch. Active means: 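Hit if the duplicate-averaged log2 ratio of induced to control-promoter light gives a plate-wise z beyond ±2, or induced to uninduced beyond ±1.8; weak-control or discordant-duplicate wells dropped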. Meaning of the calls: active = modifier hit (raised or lowered Notch signal); inactive = not a hit.
The screen tested about 22,000 reagents; this is a random part of those that have a named target and a result. Of all reagents, 403 (1.9%) got an active call. 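Unnormalised raw counts per well; ratio z-scores behind the hit calls and whether each hit raises or lowers signal are not deposited.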 The record does not give: the amount of reagent.

| predicted target | dsRNA | induced reporter light, run 1, well a | induced reporter light, run 1, well b | control promoter light, run 1, well a | control promoter light, run 1, well b | uninduced reporter light, run 1, well a | activity call |
| --- | --- | --- | --- | --- | --- | --- | --- |
| gl | DRSC16957 | 1.68e5 | 1.32e5 | 1.81e5 | 1.86e5 | 12125 | inactive |
| CG34429 | DRSC10120 | 1.62e5 | 1.37e5 | 2.17e5 | 1.80e5 | 8742 | inactive |
| Ccdc58 | DRSC10218 | 1.44e5 | 1.72e5 | 67575 | 99530 | 10690 | inactive |
| GABPI | DRSC00494 | 2.10e5 | 1.76e5 | 2.40e5 | 2.36e5 | 19555 | inactive |
| CG13667 | DRSC10028 | 85710 | 80120 | 77870 | 21705 | 9095 | inactive |
| CG5819 | DRSC04520 | 46675 | 46645 | 62900 | 61790 | 2470 | inactive |
| squ | DRSC01549 | 71915 | 53890 | 64925 | 56550 | 5580 | inactive |

2 entries from above, reformatted.
predicted target	dsRNA	induced reporter light, run 1, well a	induced reporter light, run 1, well b	control promoter light, run 1, well a	control promoter light, run 1, well b	uninduced reporter light, run 1, well a	activity call
Ccdc58	DRSC10218	1.44e5	1.72e5	67575	99530	10690	inactive
GABPI	DRSC00494	2.10e5	1.76e5	2.40e5	2.36e5	19555	inactive

Continued.
| predicted target | dsRNA | induced reporter light, run 1, well a | induced reporter light, run 1, well b | control promoter light, run 1, well a | control promoter light, run 1, well b | uninduced reporter light, run 1, well a | activity call |
| --- | --- | --- | --- | --- | --- | --- | --- |
| CG17167 | DRSC20902 | 1.05e5 | 1.01e5 | 1.05e5 | 1.56e5 | 10845 | inactive |
| CG17167 | DRSC20903 | 1.26e5 | 1.08e5 | 1.41e5 | 1.62e5 | 12630 | inactive |
| CG14483 | DRSC06455 | 1.02e5 | 83385 | 1.00e5 | 1.47e5 | 7320 | inactive |
| CR9337 | DRSC03212 | 1.09e5 | 1.34e5 | 90905 | 94080 | 6210 | inactive |
| Usp15-31 | DRSC04426 | 38635 | 52615 | 49950 | 54020 | 3670 | inactive |
| Usp15-31 | DRSC04532 | 56430 | 46585 | 25175 | 28555 | 5655 | inactive |
| CG8312 | DRSC16406 | 54385 | 50835 | 30730 | 24540 | 4515 | inactive |
| ArgRS | DRSC20138 | 16130 | 11600 | 25525 | 15625 | 2260 | inactive |
| CG9973 (retired record) | DRSC08646 | 1.45e5 | 1.49e5 | 2.59e5 | 2.64e5 | 11830 | inactive |
| Rh4 | DRSC11268 | 2.15e5 | 2.45e5 | 2.49e5 | 1.60e5 | 8890 | active |
| Cdc5 | DRSC08577 | 23138 | 19380 | 43360 | 38580 | 1940 | inactive |
| CG10486 | DRSC09735 | 2.77e5 | 2.25e5 | 4.02e5 | 3.44e5 | 12990 | inactive |
| Syx17 | DRSC08591 | 1.78e5 | 1.33e5 | 88190 | 53180 | 13425 | inactive |
